This is one part of the list. Shown are side measurements of this screen, not its main read-out; they come without a call. Most of these compounds were active or inconclusive in the main read-out, so they are no random draw. Words in brackets tell the shape of the fitted curve; partial curves, single points and poor fits give uncertain potencies.
Experiment: qHTS Assay for Lipid Storage Modulators in Drosophila S3 Cells;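 as to cell number change: cells counted by Cell Tracker Red CMTPX staining in the red channel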
Details: BODIPY lipid droplet fluorescence, 18-24 h; for cell number change: measured here: cell count max response, cells fed with added oleic acid
Method in brief: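 Drosophila S3 cells got compounds at several concentrations plus oleic acid (400 uM solution). Laser-scanning cytometry with 488 nm excitation read lipid droplets at 500-530 nm and cells at 575-640 nm. Percent activity was relative to 20 uM Triacsin C.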

[1] = measured here: lipid fluorescence (Fed channel) AC50, cells fed with added oleic acid
[2] = measured here: cell number channel AC50, cells fed with added oleic acid

COCCn1c(=O)[nH]c2cc(C(=O)Nc3nnc(C)s3)ccc21
cell number change: 3.97% | AC50 [1]: 0.82 µM [rising, full curve, poor fit]

COc1ccccc1N/C(=N/S(=O)(=O)c1ccc(Cl)cc1)c1ccccc1
cell number change: 76% | AC50 [2]: 3.66 µM [rising, partial curve] | AC50 [1]: 3.26 µM [rising, partial curve]

CN(CC(=O)Nc1ccc(F)cc1)C(=O)CSc1ncccn1
cell number change: -4.42% | AC50 [2]: 4.61 µM [falling, single point] | AC50 [1]: 8.2 µM [falling, partial curve]

COc1ccc(-c2cnc(SCC(=O)Nc3cc(C)on3)n2Cc2ccco2)cc1
cell number change: -1.2% | AC50 [1]: 11.6 µM [rising, single point]

CCn1c(SCC(=O)Nc2ccccc2)nc2nc3c(cc2c1=O)COC(C)(C)C3
AC50 [2]: 0.461 µM [rising, partial curve, poor fit]

COc1ccc(NC(=O)CSc2nnc(Cc3cccn3C)n2-c2ccc(F)cc2)cc1
cell number change: 5.82%

Cc1cnc(C(=O)Nc2ccc(S(=O)(=O)N(C(C)C)C(C)C)cc2)cn1
cell number change: 12.4% | AC50 [1]: 20.6 µM [falling, partial curve]

O=C(NNC(=O)c1ccc(-c2ccccc2)cc1)Nc1ccccc1F
cell number change: 30.2% | AC50 [2]: 0.259 µM [rising, full curve, poor fit]

CN1CC(=O)N(CC(=O)Nc2ccc(N3CCOCC3)cc2)C1=O
cell number change: 13.8% | AC50 [1]: 0.0326 µM [rising, full curve, poor fit]

Cc1[nH]c2ccccc2c1N=Nc1c(C)n(C)n(-c2ccccc2)c1=O
cell number change: -58.7% | AC50 [1]: 20.6 µM [falling, single point]

COCCCNC(=O)c1ccc2c3c(onc13)-c1ccccc1C2=O
cell number change: -68% | AC50 [2]: 29.1 µM [falling, single point] | AC50 [1]: 16.4 µM [falling, single point]

N#C/C(=C\c1cc(Cl)cc(Cl)c1O)C(=O)NC1CCCCC1
cell number change: 147% | AC50 [2]: 16.4 µM [rising, partial curve] | AC50 [1]: 20.6 µM [rising, partial curve]

CC(C)NC(=O)CSc1ccccc1C(=O)NCc1ccc2c(c1)OCO2
AC50 [2]: 2.31 µM [rising, partial curve] | AC50 [1]: 0.116 µM [rising, full curve, poor fit]

CC(NC(=O)c1cc(-c2ccncc2)nc2ccc(Cl)cc12)C1CCCO1 (centres undefined)
cell number change: -22.3% | AC50 [1]: 29.1 µM [falling, single point]

N#C/C(=N\Nc1cccc(C(F)(F)F)c1)C(=O)c1ccsc1
cell number change: -35.7% | AC50 [2]: 13 µM [falling, partial curve] | AC50 [1]: 14.6 µM [falling, partial curve]

COc1ccc(-c2[nH]ncc2CN(Cc2nccn2C)C(C)C)c(F)c1
cell number change: -9.35% | AC50 [1]: 4.11 µM [falling, single point]

COC(=O)CSc1nnc(-c2ccccc2O)n1-c1ccc(C)cc1
cell number change: -1.94%

Cc1cc(C)cc(C(=O)NCC(=O)NNC(=O)CSc2ccccc2F)c1
cell number change: 0.208% | AC50 [1]: 6.51 µM [falling, single point]

COC(=O)COC(=O)c1ccccc1NC(=O)c1ccccc1
cell number change: -33.3% | AC50 [2]: 3.26 µM [rising, partial curve] | AC50 [1]: 6.51 µM [rising, partial curve]

COc1ccccc1CN(Cc1cc2cc(C)ccc2[nH]c1=O)Cc1nnnn1CC1CCCO1 (centres undefined)
cell number change: -17.5%

CCCc1cc2c(=O)c(-c3ccc4c(c3)OCCO4)c(C)oc2cc1OS(C)(=O)=O
AC50 [1]: 0.461 µM [rising, single point]

Cc1nc(-c2ccccc2)sc1C(=O)/C=C/c1ccccc1
cell number change: -31.2% | AC50 [2]: 1.46 µM [falling, partial curve, poor fit]

Cc1sc2ncnc(NCc3cccs3)c2c1C
cell number change: 3.61%

Cc1cccc(NC(=O)CN2CCCN(S(=O)(=O)c3ccc(Br)s3)CC2)c1
cell number change: -8.65%

COc1ccc(OC)c2sc(N3CCCCC3)nc12
AC50 [2]: 0.231 µM [falling, full curve, poor fit]

CC(C)(c1ccccc1)c1ccc(OCCN)cc1
cell number change: 69.7% | AC50 [2]: 14.6 µM [rising, partial curve, poor fit]

CCOc1ccccc1CNS(=O)(=O)c1ccc2[nH]c(=O)sc2c1
cell number change: -18.6% | AC50 [1]: 29.1 µM [falling, single point]

Cc1ccccc1NC(=O)COC(=O)COc1ccc2c(c1)CCC2
cell number change: 25%

COc1ccccc1NC(=O)CSc1ncnc2c1oc1ccccc12
cell number change: -3.4% | AC50 [1]: 0.731 µM [rising, full curve, poor fit]

CCN(c1ccccc1)S(=O)(=O)c1ccc(OCc2c(C)noc2C)cc1
cell number change: 51.4% | AC50 [2]: 10.3 µM [rising, partial curve, poor fit] | AC50 [1]: 0.231 µM [rising, full curve, poor fit]

CCCn1c2c(c(O)c(C(=O)Nc3ccccc3)c1=O)CCCC2
cell number change: -42.7% | AC50 [2]: 29.1 µM [falling, single point] | AC50 [1]: 20.6 µM [rising, single point]

CN1C(=O)[C@H]2[C@@H](C3CC3)N3C(=O)CN(CCO)C(=O)[C@@]3(Cc3ccccc3)[C@H]2C1=O
cell number change: 27.5% | AC50 [1]: 0.146 µM [rising, full curve, poor fit]

COc1ccc2c(c1)CC/C(=C\c1ccc(OC)c(Cn3cccn3)c1)C2=O
AC50 [2]: 1.64 µM [rising, partial curve] | AC50 [1]: 6.51 µM [rising, single point]

Cc1ccc(C(=O)Nc2cccc(-c3ccc(N4CCOCC4)nn3)c2)cc1[N+](=O)[O-]
AC50 [1]: 1.3 µM [rising, partial curve]

CC(C)C(=O)Nc1ccc(-c2nnc(-c3ccccc3)o2)cc1
cell number change: -2.84%

Cc1cccc(CSc2cccc3cccnc23)c1
cell number change: -23.8% | AC50 [2]: 1.64 µM [falling, full curve, poor fit] | AC50 [1]: 3.66 µM [falling, partial curve]

COc1ccc(S(=O)(=O)N2CCC(C(=O)N3CCc4ccccc4C3)CC2)cc1
cell number change: 2.84% | AC50 [1]: 6.51 µM [rising, single point]

COc1ccc(Cl)cc1NC(=O)CN(C)Cc1ccc(OC)c(OC)c1
cell number change: 110% | AC50 [2]: 16.4 µM [rising, single point]

COc1ccc(NC(=O)/C(C#N)=C/c2c(C)nn(-c3ccc(F)cc3)c2Cl)cc1Cl
cell number change: 36.1% | AC50 [1]: 29.1 µM [rising, single point]

CCOc1ncccc1C(=O)OCC(=O)NCCc1ccccc1
cell number change: 77.1% | AC50 [2]: 14.6 µM [rising, partial curve] | AC50 [1]: 16.4 µM [rising, partial curve]

Cc1noc2ncnc(Sc3ccc(Br)cc3)c12
cell number change: -66.1% | AC50 [2]: 17.8 µM [falling, single point] | AC50 [1]: 20 µM [falling, partial curve]

CC(=O)c1cccc(NC(=S)NNC(=O)c2ccco2)c1
cell number change: 2.55% | AC50 [1]: 3.26 µM [rising, full curve]

CC(C)C[C@H]1CN=C(Nc2ccccc2)N1CCC(C)c1ccccc1 (some centres undefined)
cell number change: 17.2% | AC50 [1]: 1.84 µM [falling, partial curve, poor fit]

COc1ccccc1C1C(C#N)=C(N)Oc2cc(C)n(Cc3ccccn3)c(=O)c21 (centres undefined)
cell number change: 65.9% | AC50 [2]: 1.3 µM [rising, full curve] | AC50 [1]: 4.61 µM [rising, single point]

Cc1cc(/C=C2\C(=N)N3C(SCc4ccccc4)=NSC3=NC2=O)c(C)n1Cc1ccccc1
cell number change: -41.4% | AC50 [2]: 2.31 µM [falling, full curve] | AC50 [1]: 29.1 µM [falling, single point]

O=C(COC(=O)CCNS(=O)(=O)c1ccc(Cl)cc1)Nc1ccccc1OC(F)F
AC50 [1]: 18.4 µM [rising, single point]

CCCCCn1nc(C)c(/C=N/NC(=O)c2ccoc2C)c1C
cell number change: -19.5% | AC50 [1]: 11.6 µM [falling, partial curve]

CC(C)NC(=O)CN1CCC(c2nc3ccccc3[nH]2)CC1
cell number change: -9.07%

Clc1ccc(-c2csc(N/N=C/c3cccnc3)n2)c(Cl)c1
cell number change: -11.5% | AC50 [2]: 5.8 µM [rising, single point] | AC50 [1]: 2.91 µM [rising, partial curve]

Cc1c(NC(=O)C(C)Sc2nnc(-c3ccccc3)o2)c(=O)n(-c2ccccc2)n1C (centres undefined)
cell number change: 0.282%

O=C1C=C(c2cccc(CO)c2)C[C@@H](c2ccc3c(c2)OCO3)C1
cell number change: -1.03% | AC50 [2]: 1.16 µM [falling, single point] | AC50 [1]: 0.58 µM [falling, single point]

O=C(Nc1cccnc1)c1cccc(NC(=O)c2ccco2)c1
AC50 [1]: 16.4 µM [rising, partial curve]

CC(CCc1ccccc1)NC(=O)c1ccc2nc(N3CCOCC3)sc2c1 (centres undefined)
cell number change: 1.6% | AC50 [1]: 0.146 µM [falling, full curve, poor fit]

CCOC(=O)CC1C(=O)NCCN1c1nc2ccc(C)cn2c(=O)c1/C=C1\SC(=S)N(C(C)CC)C1=O (centres undefined)
cell number change: -97.4% | AC50 [2]: 2.59 µM [falling, full curve]

C=CCn1c(Cc2cccs2)nnc1SCC(=O)Nc1ccc(OC)c(OC)c1
cell number change: 113% | AC50 [2]: 5.17 µM [rising, partial curve] | AC50 [1]: 3.66 µM [rising, partial curve]

CCc1ccc(-c2nc(CS(=O)CC(=O)NCCc3ccccc3)c(C)o2)cc1 (centres undefined)
cell number change: -19.6% | AC50 [1]: 0.517 µM [falling, full curve, poor fit]

COC(=O)C1CCN(C(=O)C2CCC(=O)N(CCc3cccc(F)c3)C2)CC1 (centres undefined)
AC50 [2]: 1.84 µM [falling, partial curve, poor fit]
